Results as given in the supplement of paper PMC4604168 (melanoma cell lines).
The other results are listed elsewhere or left out. Repeats are few or missing, and single values can be far off.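 Cells were imaged in 1,536-well plates, and nuclei stained with an antibody against cleaved PARP were counted against all DNA-stained nuclei to give the apoptosis fraction. Screening doses were chosen to leave most cells alive, and resting and induced cleaved-PARP levels differ strongly between cell lines.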

What was measured:
Test in all cases: cleaved PARP positive nuclei fraction relative to DMSO control; melanoma cells; higher = more apoptosis
Conditions in all cases: library dose: low library concentration; 72 h
[1] = system: 501Mel
[2] = system: A101D
[3] = system: A2058
[4] = system: A375
[5] = system: C32
[6] = system: CBRC008 (line from a melanoma biopsy)
[7] = system: CBRC013 (line from a melanoma biopsy)
[8] = system: CBRC014 (line from a melanoma biopsy)
[9] = system: CBRC016 (line from a melanoma biopsy)
[10] = system: CBRC017 (line from a melanoma biopsy)
[11] = system: COLO792
[12] = system: COLO800
[13] = system: COLO829
[14] = system: G361
[15] = system: IPC-298
[16] = system: IST-MEL1
[17] = system: LB2518-MEL
[18] = system: LOXIMVI
[19] = system: MEL-HO

| Compound | cleaved PARP positive nuclei fraction [1] [%] | cleaved PARP positive nuclei fraction [2] [%] | cleaved PARP positive nuclei fraction [3] [%] | cleaved PARP positive nuclei fraction [4] [%] | cleaved PARP positive nuclei fraction [5] [%] | cleaved PARP positive nuclei fraction [6] [%] | cleaved PARP positive nuclei fraction [7] [%] | cleaved PARP positive nuclei fraction [8] [%] | cleaved PARP positive nuclei fraction [9] [%] | cleaved PARP positive nuclei fraction [10] [%] | cleaved PARP positive nuclei fraction [11] [%] | cleaved PARP positive nuclei fraction [12] [%] | cleaved PARP positive nuclei fraction [13] [%] | cleaved PARP positive nuclei fraction [14] [%] | cleaved PARP positive nuclei fraction [15] [%] | cleaved PARP positive nuclei fraction [16] [%] | cleaved PARP positive nuclei fraction [17] [%] | cleaved PARP positive nuclei fraction [18] [%] | cleaved PARP positive nuclei fraction [19] [%] |
| --- | --- | --- | --- | --- | --- | --- | --- | --- | --- | --- | --- | --- | --- | --- | --- | --- | --- | --- | --- |
| Clc1ccc(Nc2nnc(Cc3ccncc3)c3ccccc23)cc1 [vatalanib] + CN(C)S(=O)(=O)c1ccc2c(c1)/C(=C/c1cc3c([nH]1)CCCC3)C(=O)N2 [SU6656] (first compound 2 µM, partner dose 0.4 µM) | 88.2 | 49.6 | 27.3 | 47.9 | 128 | 147 | 180 | 179 | 124 | 101 | 52.2 | 57.5 | 55.2 | 65.2 | 32.9 | 50.4 | 113 | 63 | 72.5 |
| COCC[n+]1c2c(n(Cc3cnccn3)c1C)C(=O)c1ccccc1C2=O + CC1(C)NC(=O)N(c2ccc([N+](=O)[O-])c(C(F)(F)F)c2)C1=O [nilutamide] (first compound 0.0004 µM, partner dose 1 µM) | 263 | 94.8 | 137 | 62.5 | 105 | 1730 | 97.2 | 70.9 | 78.4 | 84.5 | 107 | 65.7 | 116 | 112 | 139 | 64.6 | 101 | 114 | 162 |
| O=C(CCCCCCC(=O)Nc1ccccc1)NO [vorinostat] + CN(C)S(=O)(=O)c1ccc2c(c1)/C(=C/c1cc3c([nH]1)CCCC3)C(=O)N2 [SU6656] (first compound 0.08 µM, partner dose 0.4 µM) | 175 | 83.3 | 176 | 255 | 83.1 | 148 | 70.1 | 88.6 | 206 | 112 | 57.8 | 93.4 | 139 | 79.8 | 47.4 | 149 | 52.7 | 16.8 | 133 |
| CC1(C)NC(=O)N(c2ccc([N+](=O)[O-])c(C(F)(F)F)c2)C1=O [nilutamide] + Cc1ccc(NC(=O)c2cccc(N(C)C)c2)cc1NC(=O)c1ccc(O)cc1 [ZM336372] (first compound 1 µM, partner dose 2 µM) | 82.7 | 76.4 | 96.7 | 72.6 | 96.5 | 67.3 | 82.4 | 105 | 145 | 105 | 84.5 | 49.6 | 107 | 72 | 302 | 33.2 | 103 | 198 | 37.6 |
| COCC[n+]1c2c(n(Cc3cnccn3)c1C)C(=O)c1ccccc1C2=O + NCC(=O)Nc1ccc(-n2nc(C(F)(F)F)cc2-c2ccc3c(ccc4ccccc43)c2)cc1 [OSU03012] (first compound 0.0004 µM, partner dose 1 µM) | 532 | 42.8 | 166 | 3950 | 93.2 | 1130 | 108 | 91.2 | 226 | 103 | 64.4 | 112 | 98 | 97.3 | 111 | 119 | 89 | 81.4 | 139 |
| Nc1cccc2c1CN(C1CCC(=O)NC1=O)C2=O (stereo unspecified) [lenalidomide] + CN(C)S(=O)(=O)c1ccc2c(c1)/C(=C/c1cc3c([nH]1)CCCC3)C(=O)N2 [SU6656] (first compound 1 µM, partner dose 0.4 µM) | 43 | 55.7 | 66.5 | 49.3 | 301 | 75.5 | 121 | 88.9 | 278 | 107 | 99.4 | 97.5 | 136 | 125 | 189 | 98.1 | 99.8 | 67 | 196 |
| C#Cc1cccc(Nc2ncnc3cc(OCCOC)c(OCCOC)cc23)c1 [erlotinib] + Cn1cncc1[C@@](N)(c1ccc(Cl)cc1)c1ccc2c(c1)c(-c1cccc(Cl)c1)cc(=O)n2C [tipifarnib] (first compound 0.8 µM, partner dose 0.01 µM) | 61.6 | 175 | 226 | 95.2 | 158 | 171 | 161 | 98 | 160 | 100 | 115 | 82.4 | 73.1 | 79.7 | 205 | 94 | 107 | 38 | 66.4 |
| Cc1ccc(NC(=O)c2cccc(N(C)C)c2)cc1NC(=O)c1ccc(O)cc1 + C[C@@H]1CCN(C(=O)CC#N)C[C@@H]1N(C)c1ncnc2[nH]ccc12 [CP690550] (first compound 2 µM, partner dose 1 µM) | 285 | 235 | 55.3 | 165 | 191 | 104 | 72.1 | 102 | 116 | 110 | 172 | 69.5 | 79 | 108 | 107 | 103 | 95.5 | 74.2 | 68.4 |
| COc1cc(Nc2ncc(F)c(Nc3ccc4c(n3)NC(=O)C(C)(C)O4)n2)cc(OC)c1OC [Tamatinib] + C[C@@H]1CCN(C(=O)CC#N)C[C@@H]1N(C)c1ncnc2[nH]ccc12 [CP690550] (first compound 0.4 µM, partner dose 1 µM) | 77.9 | 109 | 212 | 242 | 59.1 | 244 | 101 | 81.2 | 126 | 85.5 | 210 | 62.7 | 89.5 | 131 | 158 | 54.9 | 255 | 78.2 | 155 |

Single entries from the results shown:
cleaved PARP positive nuclei fraction [8] [%] with Cc1ccc(NC(=O)c2cccc(N(C)C)c2)cc1NC(=O)c1ccc(O)cc1 + C[C@@H]1CCN(C(=O)CC#N)C[C@@H]1N(C)c1ncnc2[nH]ccc12 [CP690550] (first compound 2 µM, partner dose 1 µM) reads 102
cleaved PARP positive nuclei fraction [15] [%] with C#Cc1cccc(Nc2ncnc3cc(OCCOC)c(OCCOC)cc23)c1 [erlotinib] + Cn1cncc1[C@@](N)(c1ccc(Cl)cc1)c1ccc2c(c1)c(-c1cccc(Cl)c1)cc(=O)n2C [tipifarnib] (first compound 0.8 µM, partner dose 0.01 µM) reads 205
